Experimental data published in PubChem BioAssay (EPA / NIEHS).
“And” between values parts separate entries of the source, which are not always exact repeats. Equal values may be shown once. The inconclusive results got no clear call from the source; some entries with a clear call stand among them for comparison. A potency beside an inconclusive call is a rough fit, not a confirmed value. Where a structure was tested more than once in an assay, its records may differ in their call. The source made the active and inactive calls. The calls were made as follows: active = hit-call score of the fitted dose curve at least 0.9, where 1 is the maximum; inconclusive = response in the unintended direction; inactive = score below 0.9.

Sequences of proteins named here, by UniProt entry; tags and fusion partners are left off. A change or cut given only in a name is not applied to a line headed by its entry.
UniProt P19793: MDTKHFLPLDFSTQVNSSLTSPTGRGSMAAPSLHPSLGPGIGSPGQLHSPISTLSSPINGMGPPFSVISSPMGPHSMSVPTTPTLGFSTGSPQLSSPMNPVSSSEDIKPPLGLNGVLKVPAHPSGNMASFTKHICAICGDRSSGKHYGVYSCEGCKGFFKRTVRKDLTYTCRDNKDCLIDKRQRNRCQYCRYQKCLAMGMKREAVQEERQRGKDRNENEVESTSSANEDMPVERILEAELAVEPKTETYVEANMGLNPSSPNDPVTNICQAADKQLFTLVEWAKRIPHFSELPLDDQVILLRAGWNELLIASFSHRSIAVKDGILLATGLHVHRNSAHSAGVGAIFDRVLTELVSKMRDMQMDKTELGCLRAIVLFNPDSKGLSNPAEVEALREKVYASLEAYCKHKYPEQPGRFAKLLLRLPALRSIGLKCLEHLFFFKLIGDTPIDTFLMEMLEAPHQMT

biological target: Retinoic acid receptor RXR-alpha (Homo sapiens) (UniProt P19793); assay: OT_NURR1_NURR1RXRa_0480: Odyssey Thera (OT) 8-hour HEK293T Protein Complementation Assay for Nurr1/retinoid X receptor (RXR) (AID 2283385)
Description: OT_NURR1_NURR1RXRa_0480 is a cell-based assay that uses HEK293T, a human kidney cell line, with measurements taken at 8 hours after chemical dosing in a 384-well plate.OT_NURR1_NURR1RXRa_0480 is one of one assay component(s) measured or calculated from the OT_NURR1_NURR1RXRa_0480 assay. It is designed to make measurements of protein fragment complementation, a form of binding reporter, as detected with fluorescence intensity signals by Protein-fragment Complementation technology.Data from the assay component OT_NURR1_NURR1RXRa_0480 was analyzed into 1 assay endpoint. This assay endpoint, OT_NURR1_NURR1RXRa_0480, was analyzed in the positive analysis fitting direction relative to DMSO as the negative control and baseline of activity. Using a type of binding reporter, measures of receptor for gain-of-signal activity can be used to understand the binding at the pathway-level as they relate to the gene RXRA. Furthermore, this assay endpoint can be referred to as a primary readout, because the performed assay has only produced 1 assay endpoint. To generalize the intended target to other relatable targets, this assay endpoint is annotated to the nuclear receptor intended target family, where the subfamily is non-steroidal.
Protein-fragment complementation assay, or PCA, is a method for the identification and quantification of protein-protein interactions. In the PCA, the proteins of interest ("bait" and "prey") are each covalently linked to fragments of a third protein (e.g. DHFR, which acts as a "reporter"). Interaction between the bait and the prey proteins brings the fragments of the reporter protein in close proximity to allow them to form a functional reporter protein whose activity can be measured.

outcome, inactive:
CCCCOC(=O)CC(CC(=O)OCCCC)(OC(C)=O)C(=O)OCCCC
CCNc1ccccc1
CC(C)c1ccc(C(=O)N=C(N)N)cc1S(C)(=O)=O
Cc1ccc(C)c(O)c1
CCCCCCC(=O)OCC
CCCCCCCCCCCCCCC
OC1OC[C@@H](O)[C@H](O)[C@H]1O (stereo not given in full)
CCCCN(CCCC)CCCC
COc1ccc(C)cc1N
Cc1oc(-c2ccccc2)nc1CCOc1cccc2c1ccn2CCC(=O)O
CCn1nc(C)c2c1C(=O)NCC(c1ccc(O)cc1)=N2

AC50, inconclusive:
CCNc1ccccc1 4.6 µM
CCN(CC)C(=O)c1cccc(C)c1 50 µM
CC(C)c1ccc(C(=O)N=C(N)N)cc1S(C)(=O)=O 37.2 µM
C/C=C/C=C/C(=O)O 50 µM
Cc1ccc(C)c(O)c1 12.7 µM
CC(C)(C)c1ccc(O)c(C(C)(C)C)c1 91.6 µM and 91 µM
CCCCCCC(=O)OCC 12.7 µM
Cc1ccc(O)cc1 2.64 µM
CCc1cc(Cc2cc(CC)cc(C(C)(C)C)c2O)c(O)c(C(C)(C)C)c1 50 µM
C=CCc1cc(S(=O)(=O)c2ccc(O)c(CC=C)c2)ccc1O 12.6 µM and 12.7 µM
O=C(N[C@@H](Cc1ccccc1)[C@@H](O)C(=O)N1C[C@@H](O)[C@@H](O)C1)c1cc2cc(Cl)ccc2[nH]1 27.2 µM
O=C(O)c1cccnc1 50 µM
CCCCC(C=O)CC (stereo not given) 19.4 µM
CCCCCCCCCCCCCCC 9.92 µM
CN(C)C(=O)Nc1ccccc1 50 µM
CCCCN(CCCC)CCCC 50 µM
CCN(CC)CCOC(=O)c1ccc(N)cc1 9.54 µM
CC(C)CCOC(=O)c1ccccc1 50 µM
CCCCCCCCCC(=O)OC 50 µM
Cc1cccc(C)c1O 368 nM and 50 µM
O=C1c2ccccc2C(=O)N1CCc1noc(-c2ccc(CN3CCCCCC3)s2)n1 0.713 µM
Cc1ccc2ncccc2c1 4.02 µM and 28.9 µM

Eight entries from above, sorted by heavy-atom count, smallest number first:
AC50, inconclusive:
Cc1ccc(C)c(O)c1 12.7 µM
CC(C)CCOC(=O)c1ccccc1 50 µM
CCCCCCCCCCCCCCC 9.92 µM
CCN(CC)CCOC(=O)c1ccc(N)cc1 9.54 µM
CC(C)c1ccc(C(=O)N=C(N)N)cc1S(C)(=O)=O 37.2 µM
C=CCc1cc(S(=O)(=O)c2ccc(O)c(CC=C)c2)ccc1O 12.6 µM and 12.7 µM
O=C1c2ccccc2C(=O)N1CCc1noc(-c2ccc(CN3CCCCCC3)s2)n1 0.713 µM
O=C(N[C@@H](Cc1ccccc1)[C@@H](O)C(=O)N1C[C@@H](O)[C@@H](O)C1)c1cc2cc(Cl)ccc2[nH]1 27.2 µM

Following part:

AC50, active:
CCCCCCCCCCCCN1CCOCC1 73.6 µM
CCCCc1nc2cccnc2n1Cc1ccc(-c2ccccc2-c2nnn[nH]2)cc1 15.4 µM
CC(=O)C1=C(C)[C@@H]2C[C@@]3(C1)[C@H](C)CC[C@H]3C2(C)C 72.4 µM
CCc1nn(C2CCCCC2)c2cc(C3(C#N)CCC(C(=O)O)CC3)ccc12 (stereo not given) 76.9 µM
CC(C)(C)CC(C)(C)c1ccc(O)c(-n2nc3ccccc3n2)c1 75.6 µM and 79 µM
O=C(O)c1cccc(N(Cc2cccnc2)c2ccc(OC(F)F)c(OC(F)F)c2)c1 29.4 µM
CCCCC(CC)COC(=O)/C=C\C(=O)OCC(CC)CCCC (stereo not given) 7.85 µM
